These are yes or no findings as the source states them, for the method shown. Binding seen in cells or lysates may run through a third protein. Some binding calls cover weakened binding; strength is not graded here.
Columns and labels:
[1] = molecular target: Discoidin Domain Receptor 1 (endogenous, A549 cells) (human (endogenous in A549)) (UniProt Q08345); assay: co-IP; reciprocal co-IP of endogenous proteins in A549 cells with DDR1 or USP7 antibodies, IgG as negative control, immunoblot; at least 1 mg protein and at least 1 ug antibody per sample
[2] = molecular target: DDR1-Flag (UniProt Q08345); assay: co-IP; HEK293T cells overexpressing DDR1-Flag and Myc-USP7; IP with Myc magnetic beads or DDR1 antibody, immunoblot; also done in SCR and TP53-knockdown HEK293T cells (Myc pulldown); at least 1 mg protein and at least 1 ug antibody per sample

Amino acid sequences for entries named in this document (tags omitted). Residues count along the entry.
UniProt Q08345, residues 19-913: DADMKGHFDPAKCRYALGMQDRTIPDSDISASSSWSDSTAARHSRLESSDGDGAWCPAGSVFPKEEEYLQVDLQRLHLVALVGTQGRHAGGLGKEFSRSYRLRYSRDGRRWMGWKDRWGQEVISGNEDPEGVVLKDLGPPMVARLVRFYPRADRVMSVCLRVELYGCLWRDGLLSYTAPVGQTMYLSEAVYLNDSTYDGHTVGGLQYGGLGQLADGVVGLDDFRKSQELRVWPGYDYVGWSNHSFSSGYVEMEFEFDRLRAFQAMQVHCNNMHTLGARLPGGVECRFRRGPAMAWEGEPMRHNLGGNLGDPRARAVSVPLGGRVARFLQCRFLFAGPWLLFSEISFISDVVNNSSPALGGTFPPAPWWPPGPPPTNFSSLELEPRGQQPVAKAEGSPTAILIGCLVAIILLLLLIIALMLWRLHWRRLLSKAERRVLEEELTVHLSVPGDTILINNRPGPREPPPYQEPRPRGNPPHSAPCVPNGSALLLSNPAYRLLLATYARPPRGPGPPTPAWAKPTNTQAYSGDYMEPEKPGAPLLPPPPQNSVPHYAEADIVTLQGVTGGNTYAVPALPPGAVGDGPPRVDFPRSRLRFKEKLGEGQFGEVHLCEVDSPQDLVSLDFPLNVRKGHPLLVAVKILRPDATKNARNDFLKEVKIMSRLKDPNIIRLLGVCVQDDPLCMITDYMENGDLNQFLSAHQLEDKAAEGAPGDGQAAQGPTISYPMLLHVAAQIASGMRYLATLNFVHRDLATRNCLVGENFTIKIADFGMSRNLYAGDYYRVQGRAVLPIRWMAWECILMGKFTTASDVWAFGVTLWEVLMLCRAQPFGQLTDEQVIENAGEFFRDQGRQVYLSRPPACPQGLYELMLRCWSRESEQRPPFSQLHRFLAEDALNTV
UniProt Q93009: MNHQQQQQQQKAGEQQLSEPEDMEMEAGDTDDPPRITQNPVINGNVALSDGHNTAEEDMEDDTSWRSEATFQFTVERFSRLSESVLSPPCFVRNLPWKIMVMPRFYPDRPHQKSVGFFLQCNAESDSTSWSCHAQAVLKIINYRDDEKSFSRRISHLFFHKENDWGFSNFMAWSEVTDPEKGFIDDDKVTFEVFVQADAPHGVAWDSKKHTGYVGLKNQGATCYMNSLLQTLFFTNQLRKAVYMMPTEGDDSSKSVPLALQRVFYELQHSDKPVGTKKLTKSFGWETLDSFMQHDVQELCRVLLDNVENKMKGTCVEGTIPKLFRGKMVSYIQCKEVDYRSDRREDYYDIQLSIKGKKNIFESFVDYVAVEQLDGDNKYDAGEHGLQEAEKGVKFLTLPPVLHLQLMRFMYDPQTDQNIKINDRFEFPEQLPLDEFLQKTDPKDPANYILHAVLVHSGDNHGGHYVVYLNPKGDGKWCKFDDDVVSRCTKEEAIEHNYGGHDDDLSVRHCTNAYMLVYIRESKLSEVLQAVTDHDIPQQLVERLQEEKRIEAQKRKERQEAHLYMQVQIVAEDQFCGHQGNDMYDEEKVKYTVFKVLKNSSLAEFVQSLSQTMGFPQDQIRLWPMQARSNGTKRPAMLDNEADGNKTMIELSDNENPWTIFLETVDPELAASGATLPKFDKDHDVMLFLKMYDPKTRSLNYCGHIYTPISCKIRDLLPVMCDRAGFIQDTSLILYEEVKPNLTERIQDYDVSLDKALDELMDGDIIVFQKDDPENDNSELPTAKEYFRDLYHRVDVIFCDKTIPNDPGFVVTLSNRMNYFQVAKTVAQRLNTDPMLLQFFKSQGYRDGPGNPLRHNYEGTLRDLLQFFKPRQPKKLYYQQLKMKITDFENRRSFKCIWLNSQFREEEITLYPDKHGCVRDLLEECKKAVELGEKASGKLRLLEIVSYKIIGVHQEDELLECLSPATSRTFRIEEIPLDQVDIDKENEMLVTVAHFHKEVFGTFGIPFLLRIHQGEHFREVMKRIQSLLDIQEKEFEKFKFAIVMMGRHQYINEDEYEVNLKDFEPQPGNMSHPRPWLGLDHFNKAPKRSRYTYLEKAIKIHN

| binding [1] | binding [2] | Substance |
| --- | --- | --- |
| binds |  | Ubiquitin-specific protease 7 (endogenous, A549 cells) (from UniProt Q93009 1-1102) (enzyme) |
|  | binds | Myc-USP7 (from UniProt Q93009 1-1102) (enzyme) |

From paper PMC12390941, “Ubiquitin-specific protease 7-mediated stabilization of discoidin domain receptor 1 drives progression of TP53-Mutant cancers” (The Journal of Biological Chemistry, 2025)
